Test results reported in patent publication US7524821B2 (priority 2002, dated 2009).

Assay: general procedure: Fmoc solid-phase peptide synthesis; Fmoc-PAL-PEG-PS; HATU/DIPEA
Conditions: conjugation step

Substance	conjugation yield
Ac-CELDKWA-NH2	88%
Ac-ELDKWAC-NH2	91%
